Data from patent US20220087990A1, “APPLICATION OF RIFAMYCIN-QUINOLIZIDONE CONJUGATE MOLECULE AND PHARMACEUTICALLY ACCEPTABLE SALT THEREOF” (priority 2019, published 2022).
For some assays here: For at least one compound, name, drawing or mass did not settle the structure. Some results were stated once for a whole list of compounds, not compound by compound.

Experiments:
[1] = test system: S. aureus CB1406, CB1823, CB1840 and CB1857; design: species or system Staphylococcus aureus; Balb/c mice; details: mouse, in vivo
Protocol: Test Drug: rifamycin-quinolizidone conjugate molecule I was provided by TenNor Therapeutics, Ltd., and was stored at −20° C. Other test compounds and reagents are commercially available. […] For remaining test agents, aqueous vehicles of sterile water, 5% sodium bicarbonate or 0.9% normal saline were added to the compound shown in formula I. The rifamycin-quinolizidone conjugate molecule formulation shown in formula I was administered at 30 mg/kg.
Bacteria: The bacteria used were biofilm forming Staphylococcus aureus strains. […] Minimal inhibit concentrations (MICs) were determined by broth microdilution assays recommended by CLSI. […]
Formation and treatments of subcutaneous implant infections: the mice were anesthetized with isoflurane vapors (4 L/min). […] The mice were returned to their cages and regularly monitored for adverse reactions. […] Implant-associated bacteria were monitored by sampling colonized catheter segments during the course of implant surgeries and at regular intervals for up to 28 days post infection.
Sampling of infected implants: infected mice were euthanized by CO2 inhalation, then flanks were sterilized with 70% ethanol, and the infected catheter segments were excised into 1 mL of phosphate buffered saline pH 7.2 (1×PBS). […] Explanted samples were then snap frozen in dry ice/ethanol and stored at −80° C. until CFU counts were determined. […]

[2] = test system: methicillin-resistant Staphylococcus aureus (MRSA) isolates; test: MIC measured by agar dilution method (CLSI); assay type: cell-based
Protocol: Spontaneous mutation and minimal inhibit concentration (MIC) tested by agar dilution method, the above compounds are respectively prepared into a stock solution (100X) with a concentration 100 times the highest final concentration in corresponding solvents and used on the same day. Before use, I is further diluted with DMSO; and oxacillin, rifampicin and levofloxacin are further diluted with water.
Bacterial isolates: Staphylococcus aureus isolates are retrieved from the −80° C. storage room of Micromyx Culture Collection, thawed, plated onto Tryptic Soy Agar+5% sheep blood (Remel; Lenexa, Kans.), and then incubated aerobically at 35° C. overnight. S. aureus ATCC 29213 (MRSA; MMX 0100) was included during testing only for the purpose of quality control. Test Media: The isolates were tested in both the agar dilution MIC assay and the spontaneous mutation assay using Mueller-Hinton Agar (MHA; BD/BBL; Lot No. 6229829 & 4216798). Inocula of each isolate were suspended in cation-adjusted Mueller-Hinton Broth (CAMHB) (BD/BBL; Lot Nos. 5257869 & 6258541). Sodium chloride (Sigma-Aldrich; Lot No. SLBL0434V) was added to CAMHB at a final concentration of 2% when testing oxacillin. […]
MIC measured by agar dilution method: according to the recommendation from the Clinical and Laboratory Standards Institute (CLSI), the MIC value is measured by the agar dilution method. […]

SMILES	range of log10 CFU reduction in catheter colony counts [1]	sensitivity of the strains (resistant / sensitive) [2]
CO[C@H]1/C=C/O[C@@]2(C)Oc3c(C)c(O)c4c(O)c(c(/C=N/N5CCC(N(C)C6([C@@H]7CCN(c8c(F)cn9c(=O)c(C(=O)O)cc(C%10CC%10)c9c8C)C7)CC6)CC5)c(O)c4c3C2=O)NC(=O)/C(C)=C\C=C\[C@H](C)[C@H](O)[C@@H](C)[C@@H](O)[C@@H](C)[C@H](OC(C)=O)[C@@H]1C [I]	4.3-4.9 log10 CFU	–
CO[C@H]1/C=C/O[C@@]2(C)Oc3c(C)c(O)c4c(O)c(c(/C=N/N5CCN(C)CC5)c(O)c4c3C2=O)NC(=O)/C(C)=C\C=C\[C@H](C)[C@H](O)[C@@H](C)[C@@H](O)[C@@H](C)[C@H](OC(C)=O)[C@@H]1C [Rifampicin]	–	sensitive
